Assay results taken from US8034636B2, “Hydrophilic chemiluminescent acridinium labeling reagents” (Quest Diagnostics Investments Incorporated, priority 2002, dated 2011).

Assay: Specific chemiluminescence activity (Berthold chemiluminometer)
Assay type: physicochemical
Description: To a stirred suspension of 2,6-(dimethyl)phenyl-N-(3-sulfopropyl)acridine-9-carboxylate (180 mg, 0.40 mmole) in 12 ml dry dichloromethane in a 25-ml oven-dried flask under argon, was added 400 microliters of 99+% chlorosulfonic acid (0.70 g, 6.0 mmole). The chlorosulfonation was allowed to proceed overnight under argon at room temperature. The small amount of insoluble brown solid was allowed to settle and then the yellow supernatant was added dropwise from a Pasteur pipet to a flask containing stirred 100 ml of anhydrous ether under argon. The product was collected on a sintered glass funnel under a blanket of argon under a large inverted funnel and then washed with about 30 ml of dry ether. […] Specific chemiluminescence activity in 0.4% BSA in phosphate buffer pH 6.0 using the Berthold chemiluminometer=3.8×10^19 relative luminescence units per mole.
In preparation for conjugation using SPAE, 1 mg (6.7 nanomole) of goat anti-TSH tag antibody was buffer-exchanged in an Amicon Centricon concentrator cartridge (MW=cut-off=30,000) to produce a solution of 1 mg antibody in 400 μl of 100 mM carbonate pH 9.6. […] The UV-vis spectrum of an aliquot of the conjugate fraction acidified to pH 2 was recorded to determine the number of acridinium labels per IgG molecule. […] The specific chemiluminescence activity for this conjugate measured using the Berthold Chemiluminometer was 743 RLU/pg. […]

Compound	Specific chemiluminescence activity (0.4% BSA in phosphate buffer pH 6.0, Berthold chemiluminometer)	specific chemiluminescence activity of conjugate (goat polyclonal anti-TSH conjugate, 22× reagent/antibody molar ratio)
Cc1ccc(S(=O)(=O)Cl)c(C)c1OC(=O)c1c2ccccc2[n+](CCCS(=O)(=O)[O-])c2ccccc12 [SPAE, 2,6-(dimethyl)-3-chlorosulfonylphenyl-N-(3-sulfopropyl)-acridinium-9-carboxylate]	3.8×10^19 relative luminescence units per mole	–
SPAE-(polyethyleneoxide)-4-pentafluorophenyl ester [SPAE-PEO4-PFP]	–	332 RLU/pg
